Assay results: PMC9629621
Where a chain is given by its changes, count along the chain named. These are yes or no findings as the source states them, for the method shown. Binding seen in cells or lysates may run through a third protein. Some entries that bind do so weakly or less than the wild type. For some assays here: Tags and fused reporters may be left off the sequences shown.

Amino acid sequences for entries named in this document (tags omitted).
UniProt P10591: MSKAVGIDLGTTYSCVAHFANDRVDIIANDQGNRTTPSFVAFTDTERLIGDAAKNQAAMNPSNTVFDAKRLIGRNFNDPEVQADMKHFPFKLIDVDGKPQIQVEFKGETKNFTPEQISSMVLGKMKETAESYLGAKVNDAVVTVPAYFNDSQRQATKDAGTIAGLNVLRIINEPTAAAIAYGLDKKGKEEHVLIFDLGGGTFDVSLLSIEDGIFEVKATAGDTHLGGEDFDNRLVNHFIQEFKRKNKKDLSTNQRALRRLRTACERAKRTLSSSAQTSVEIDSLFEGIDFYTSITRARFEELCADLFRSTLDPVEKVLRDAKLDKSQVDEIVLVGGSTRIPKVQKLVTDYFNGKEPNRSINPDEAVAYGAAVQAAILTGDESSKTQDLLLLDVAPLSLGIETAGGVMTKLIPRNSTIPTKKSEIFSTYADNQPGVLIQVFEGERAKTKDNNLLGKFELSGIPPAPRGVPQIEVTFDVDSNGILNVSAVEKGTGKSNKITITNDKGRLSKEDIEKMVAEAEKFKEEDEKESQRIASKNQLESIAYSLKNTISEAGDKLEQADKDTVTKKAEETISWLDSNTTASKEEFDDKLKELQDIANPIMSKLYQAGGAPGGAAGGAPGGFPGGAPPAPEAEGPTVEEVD

Columns and labels:
[1] = target: T1, Pim1 S974D (S. cerevisiae) (UniProt P36775); assay: co-IP; yeast extract (200 ug) on anti-GFP magnetic beads (GFP-TRAP), 4°C overnight; 50 mM Na-phosphate pH 8.0, 300 mM NaCl, 0.01% Tween-20; western blot
T1 sequence: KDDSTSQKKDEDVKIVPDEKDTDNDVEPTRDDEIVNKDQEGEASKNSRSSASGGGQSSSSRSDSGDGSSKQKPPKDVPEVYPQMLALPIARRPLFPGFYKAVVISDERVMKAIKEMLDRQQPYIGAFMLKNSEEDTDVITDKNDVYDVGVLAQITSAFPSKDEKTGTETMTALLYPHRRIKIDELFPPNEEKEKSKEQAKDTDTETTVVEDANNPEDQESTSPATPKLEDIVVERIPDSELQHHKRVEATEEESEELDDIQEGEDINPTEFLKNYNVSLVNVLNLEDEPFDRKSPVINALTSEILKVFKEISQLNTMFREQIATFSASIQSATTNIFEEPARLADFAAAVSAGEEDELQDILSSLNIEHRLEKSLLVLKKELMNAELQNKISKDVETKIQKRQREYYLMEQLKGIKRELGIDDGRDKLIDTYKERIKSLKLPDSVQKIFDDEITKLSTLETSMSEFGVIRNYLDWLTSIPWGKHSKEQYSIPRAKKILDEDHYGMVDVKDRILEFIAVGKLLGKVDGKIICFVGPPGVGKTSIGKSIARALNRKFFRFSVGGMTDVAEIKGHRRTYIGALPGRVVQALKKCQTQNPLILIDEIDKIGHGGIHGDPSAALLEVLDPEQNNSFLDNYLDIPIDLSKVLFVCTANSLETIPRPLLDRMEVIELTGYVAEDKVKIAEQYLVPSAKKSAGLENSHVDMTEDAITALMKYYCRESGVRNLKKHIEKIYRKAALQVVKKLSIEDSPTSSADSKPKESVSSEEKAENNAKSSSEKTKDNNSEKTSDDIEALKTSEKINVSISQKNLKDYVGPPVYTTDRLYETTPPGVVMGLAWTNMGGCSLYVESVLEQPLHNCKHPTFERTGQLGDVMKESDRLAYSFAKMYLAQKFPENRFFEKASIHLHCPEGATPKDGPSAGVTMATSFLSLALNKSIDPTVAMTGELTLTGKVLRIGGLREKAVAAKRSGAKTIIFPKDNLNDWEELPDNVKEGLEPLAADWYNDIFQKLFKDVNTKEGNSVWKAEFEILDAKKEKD

[2] = target: T2, Pim1-GFP (wild type) (S. cerevisiae) (UniProt P36775); assay: as above
T2 sequence: T1 sequence with D876S

binding [1]: binds
binding [2]: binds
Substance: Ssa1 (endogenous, detected with anti-Ssa1) (from UniProt P10591 1-642)
